Data taken from paper doi:10.1101/2024.09.30.615192.
Results are given in words; binding and its absence hold for the method and conditions named. Binding seen in cells or lysates may run through a third protein. These calls come from enrichment with a bait or labelling near it, and not all partners need be listed.

Assays:
Assay in all cases: affinity purification with mass spectrometry
SLC9A5 (human) = target: T1, SLC9A5 (human) (UniProt Q14940)
T1 sequence: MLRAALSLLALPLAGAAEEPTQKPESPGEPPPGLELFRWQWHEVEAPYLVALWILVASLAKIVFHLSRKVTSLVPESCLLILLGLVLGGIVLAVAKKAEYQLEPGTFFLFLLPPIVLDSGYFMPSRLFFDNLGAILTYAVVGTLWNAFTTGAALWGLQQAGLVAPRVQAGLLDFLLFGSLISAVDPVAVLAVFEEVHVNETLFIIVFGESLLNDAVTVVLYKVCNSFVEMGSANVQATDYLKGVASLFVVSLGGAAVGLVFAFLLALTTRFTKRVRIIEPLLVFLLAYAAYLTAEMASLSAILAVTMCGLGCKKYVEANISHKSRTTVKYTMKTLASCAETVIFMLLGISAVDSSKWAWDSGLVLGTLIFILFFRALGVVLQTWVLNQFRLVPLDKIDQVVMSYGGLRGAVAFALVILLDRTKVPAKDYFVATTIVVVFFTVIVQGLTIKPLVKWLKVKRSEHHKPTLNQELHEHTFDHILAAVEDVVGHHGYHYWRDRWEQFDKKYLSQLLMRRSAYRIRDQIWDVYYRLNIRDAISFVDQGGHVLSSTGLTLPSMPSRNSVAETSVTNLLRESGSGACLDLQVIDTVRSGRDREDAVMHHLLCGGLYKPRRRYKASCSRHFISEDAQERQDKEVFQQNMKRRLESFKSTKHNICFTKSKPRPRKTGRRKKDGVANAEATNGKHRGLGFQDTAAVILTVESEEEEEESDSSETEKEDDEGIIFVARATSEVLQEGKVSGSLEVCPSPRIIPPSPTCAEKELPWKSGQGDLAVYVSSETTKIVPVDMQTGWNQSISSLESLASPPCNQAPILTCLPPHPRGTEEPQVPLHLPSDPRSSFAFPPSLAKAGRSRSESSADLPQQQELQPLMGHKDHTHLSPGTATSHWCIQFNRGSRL

SLC9A7 (human) = target: T2, SLC9A7 (human) (UniProt Q96T83)
T2 sequence: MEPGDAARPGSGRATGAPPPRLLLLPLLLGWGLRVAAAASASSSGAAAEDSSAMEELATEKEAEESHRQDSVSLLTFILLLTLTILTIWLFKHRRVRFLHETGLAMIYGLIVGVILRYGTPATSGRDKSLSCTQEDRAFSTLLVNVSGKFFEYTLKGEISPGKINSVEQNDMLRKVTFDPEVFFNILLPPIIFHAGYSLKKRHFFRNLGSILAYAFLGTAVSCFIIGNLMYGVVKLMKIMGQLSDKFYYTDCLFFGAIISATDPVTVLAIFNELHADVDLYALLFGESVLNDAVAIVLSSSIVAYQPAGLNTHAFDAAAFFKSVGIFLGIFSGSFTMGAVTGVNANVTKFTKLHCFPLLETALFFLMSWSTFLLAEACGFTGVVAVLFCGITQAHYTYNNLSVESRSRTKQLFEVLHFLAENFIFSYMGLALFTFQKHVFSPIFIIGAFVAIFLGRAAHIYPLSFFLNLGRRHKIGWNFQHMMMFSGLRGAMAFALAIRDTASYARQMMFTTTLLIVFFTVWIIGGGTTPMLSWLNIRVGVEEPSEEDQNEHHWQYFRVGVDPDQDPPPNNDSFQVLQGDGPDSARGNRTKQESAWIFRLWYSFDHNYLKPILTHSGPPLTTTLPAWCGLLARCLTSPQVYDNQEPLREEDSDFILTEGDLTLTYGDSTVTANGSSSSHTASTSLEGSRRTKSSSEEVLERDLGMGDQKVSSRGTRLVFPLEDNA

SLC9A8 (human) = target: T3, SLC9A8 (human) (UniProt Q9Y2E8)
T3 sequence: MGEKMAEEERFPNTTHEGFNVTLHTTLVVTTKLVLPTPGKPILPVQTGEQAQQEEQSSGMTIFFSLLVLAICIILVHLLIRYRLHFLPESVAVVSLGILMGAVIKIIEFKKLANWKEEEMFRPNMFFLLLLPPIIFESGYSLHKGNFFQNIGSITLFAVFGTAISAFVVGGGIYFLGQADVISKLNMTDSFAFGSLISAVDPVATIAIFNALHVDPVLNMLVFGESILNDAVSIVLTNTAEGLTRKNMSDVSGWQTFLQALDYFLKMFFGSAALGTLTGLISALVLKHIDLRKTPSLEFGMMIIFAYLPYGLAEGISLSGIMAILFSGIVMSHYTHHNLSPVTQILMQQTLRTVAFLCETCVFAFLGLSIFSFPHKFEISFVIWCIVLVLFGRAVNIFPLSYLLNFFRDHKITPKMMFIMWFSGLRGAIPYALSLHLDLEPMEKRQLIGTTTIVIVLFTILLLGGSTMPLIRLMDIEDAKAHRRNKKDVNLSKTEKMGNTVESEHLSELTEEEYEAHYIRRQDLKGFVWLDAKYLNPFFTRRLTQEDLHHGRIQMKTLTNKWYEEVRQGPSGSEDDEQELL

Measured: binding

B1: calcium-binding protein CHP1 (protein, UniProt Q99653 1-195)
chain: MGSRASTLLRDEELEEIKKETGFSHSQITRLYSRFTSLDKGENGTLSREDFQRIPELAINPLGDRIINAFFPEGEDQVNFRGFMRTLAHFRPIEDNEKSKDVNGPEPLNSRSNKLHFAFRLYDLDKDEKISRDELLQVLRMMVGVNISDEQLGSIADRTIQEADQDGDSAISFTEFVKVLEKVDVEQKMSIRFLH
binds: all assays above
